In patent US20260265351A1:
No constants are given. Whether binding was seen depends on the method and setting. Binding calls can cover weak binding; strength is not graded here.

Biological target: biotinylated 1a157 E2 (hepatitis C virus)
Test: BLI E2-binding competition

- binding: binds
B1: hcab05 (antibody, V domains shown)
VH: QVQLQESGSGLVRPSQTLSLTCTVSGGSISSDAYSWNWIRQPPGKGLEWIGHIYHSGRTSHNPSLNSRVTISVDRSKNQFSLRLTSVTAADTAVYYCAREAQDYRGYRFDSWGQGTLVTVSS
VL: DIQMTQSPSSLSASVGDRVTITCRASQYISDYLNWYQQKPGKAPNLLIYAASSLQSGVPSRFSGSGSGTDFTLTISSLQPEDFATYYCQQSYGTPPWTFGQGTKVEFK
